Screen size: about 320,000 compounds; about 2,100 (0.66%) were called active. This list was built around the results that the source calls inconclusive (neither active nor inactive); the mix of calls is not that of the screen. Calls follow the shape of the dose curve; as a rule, active = well fitted inhibition curve with a large enough effect in the signal ratio, with a control signal flat (not every such curve was filed as active); inconclusive = small, poorly fitted or top-dose-only effect, or effect the other way, or a change in a side signal; inactive = flat fitted curve, though single readings scatter; the % refers to the signal ratio. Potencies of inconclusive entries are doubtful fits and often do not repeat.
Assay: qHTS Assay for Lipid Storage Modulators in Drosophila S3 Cells
Settings: BODIPY lipid droplet fluorescence, 18-24 h, cells fed with added oleic acid; lipid storage change, negative = inhibition: at 46.1 µM (top of the series) unless noted
Procedure, shortened: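 Drosophila S3 cells got compounds at several concentrations plus oleic acid (400 uM solution). Laser-scanning cytometry with 488 nm excitation read lipid droplets at 500-530 nm and cells at 575-640 nm. Percent activity was relative to 20 uM Triacsin C.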
% is scaled to controls: 0 for no effect and ±100 for the full control effect; potency is read from the fitted curve at half-maximal effect.

| SMILES | lipid storage change, negative = inhibition | Potency |
| --- | --- | --- |
| O=C(COC(=O)c1ccccc1SCC(=O)N1CCCC1)Nc1ccccc1OC(F)F | inconclusive: 29.7% |  |
| O=C(COC(=O)c1ccc(Cl)cc1)NC(=O)NC1CCCC1 | inconclusive |  |
| CC12CCC(C(N)=O)(C1Br)C2(C)C (stereo unspecified) | inconclusive: -56.7% |  |
| Cc1ccc(-c2cc(Cc3ccccc3)c(=O)[nH]n2)cc1 | inconclusive: 40% |  |
| O=C(c1ccc(Br)cc1)N(C1=NCCCCS1)c1ccccc1 | inconclusive: 13.3% |  |
| Cc1cccc(NC(=O)NCC2CC2)c1 | inconclusive: 13.9% |  |
| Cc1cc(C[n+]2ccccc2)c2nsnc2c1 |  | inconclusive: 5.8 µM [falling, partial curve, poor fit] |
| CCc1nnc(NC(=O)c2sc3nc4c(cc3c2N)CCCCC4)s1 |  | inconclusive: 23.1 µM [falling, partial curve, poor fit] |
| COc1ccc(Br)cc1CN1CCN(Cc2c[nH]c3ccccc23)CC1 | inconclusive: -0.0762% |  |
| CCCOc1ccc(C2C3=C(CCCC3=O)N(CC(=O)O)C3=C2C(=O)CCC3)cc1OCC |  | inconclusive: 23.1 µM [activator, single point] |
| O=C(Nc1ccc2c(c1)OCO2)c1cnn2c1NC(c1ccco1)CC2C(F)(F)F (stereo unspecified) |  | inconclusive: 2.06 µM [activator, partial curve] |
| Cc1nn(C)c(C)c1C(=O)NN |  | inconclusive: 29.1 µM [falling, single point] |
| CCc1nn2cc(C(=O)c3ccccc3O)cnc2c1-c1ccc(F)cc1 | inconclusive: 13.1% |  |
| CN1C(=O)CSC1=Nc1cccc(Cl)c1 | inconclusive: 6.33% |  |
| O=C(CNC(=O)c1ccccc1F)OCn1nnc2ccccc2c1=O |  | inconclusive: 4.11 µM [falling, full curve, poor fit] |
| Oc1c(C(c2cccs2)N2CCOCC2)sc2ncnn12 (stereo unspecified) | inconclusive: 1.17% |  |
| O=C(NCCCN1CCOCC1)c1cc(Cl)ccc1Cl | inconclusive: 10.2% |  |
| CC(C)(C)c1ccc(S(=O)(=O)N2CCC(CO)(CC3CCCCO3)CC2)cc1 (stereo unspecified) | inconclusive: -19.3% |  |
| CN1C(=O)N(CC(=O)Nc2nccs2)C(=O)C12CCCCC2 |  | inconclusive: 5.17 µM [falling, single point] |
| CC1CCCC(NC(=O)COC(=O)c2c[nH]c(=O)[nH]c2=O)C1C (stereo unspecified) |  | inconclusive: 6.51 µM [falling, partial curve, poor fit] |
| CCn1c(CN2CCN(c3ccc(OC)cc3)CC2)nc2cc(S(=O)(=O)N(C)C)ccc21 |  | inconclusive: 0.116 µM [falling, full curve, poor fit] |
| O=C(N/N=C/c1ccccc1OCc1ccccc1)c1cccs1 |  | inconclusive: 5.17 µM [activator, single point] |
| O=C(CCS(=O)(=O)Cc1ccccc1)NC1CCCCC1 |  | inconclusive: 5.8 µM [falling, full curve] |
| CC(NC(=O)c1ccco1)C12CC3CC(CC(C3)C1)C2 (stereo unspecified) | inconclusive: 11.4% |  |
| CC(C)Cn1c(-c2ccco2)csc1=Nc1cccnc1 |  | inconclusive: 1.46 µM [falling, partial curve] |
| Cc1cccc(OCC(O)Cn2ccnc2C)c1 (stereo unspecified) |  | inconclusive: 23.1 µM [falling, single point] |

Exported comma-delimited: 15 of the compounds above.
SMILES,"lipid storage change, negative = inhibition",Potency
COc1ccc(Br)cc1CN1CCN(Cc2c[nH]c3ccccc23)CC1,inconclusive: -0.0762%,
CCCOc1ccc(C2C3=C(CCCC3=O)N(CC(=O)O)C3=C2C(=O)CCC3)cc1OCC,,"inconclusive: 23.1 µM [activator, single point]"
O=C(Nc1ccc2c(c1)OCO2)c1cnn2c1NC(c1ccco1)CC2C(F)(F)F (stereo unspecified),,"inconclusive: 2.06 µM [activator, partial curve]"
Cc1nn(C)c(C)c1C(=O)NN,,"inconclusive: 29.1 µM [falling, single point]"
CCc1nn2cc(C(=O)c3ccccc3O)cnc2c1-c1ccc(F)cc1,inconclusive: 13.1%,
CN1C(=O)CSC1=Nc1cccc(Cl)c1,inconclusive: 6.33%,
O=C(CNC(=O)c1ccccc1F)OCn1nnc2ccccc2c1=O,,"inconclusive: 4.11 µM [falling, full curve, poor fit]"
Oc1c(C(c2cccs2)N2CCOCC2)sc2ncnn12 (stereo unspecified),inconclusive: 1.17%,
O=C(NCCCN1CCOCC1)c1cc(Cl)ccc1Cl,inconclusive: 10.2%,
CC(C)(C)c1ccc(S(=O)(=O)N2CCC(CO)(CC3CCCCO3)CC2)cc1 (stereo unspecified),inconclusive: -19.3%,
CN1C(=O)N(CC(=O)Nc2nccs2)C(=O)C12CCCCC2,,"inconclusive: 5.17 µM [falling, single point]"
CC1CCCC(NC(=O)COC(=O)c2c[nH]c(=O)[nH]c2=O)C1C (stereo unspecified),,"inconclusive: 6.51 µM [falling, partial curve, poor fit]"
CCn1c(CN2CCN(c3ccc(OC)cc3)CC2)nc2cc(S(=O)(=O)N(C)C)ccc21,,"inconclusive: 0.116 µM [falling, full curve, poor fit]"
O=C(N/N=C/c1ccccc1OCc1ccccc1)c1cccs1,,"inconclusive: 5.17 µM [activator, single point]"
O=C(CCS(=O)(=O)Cc1ccccc1)NC1CCCCC1,,"inconclusive: 5.8 µM [falling, full curve]"

(listing goes on)

| SMILES | lipid storage change, negative = inhibition | Potency |
| --- | --- | --- |
| CCC1(c2ccc(F)cc2)NC(=O)N(CC(=O)Nc2ccccc2Cl)C1=O (stereo unspecified) |  | inconclusive: 0.0046 µM [falling, full curve, poor fit] |
| C[C@H](NC(=O)C1CCC(CNC(=O)[C@@H]2CCCN2C(=O)OC(C)(C)C)CC1)C(=O)O (stereo partly specified) | inconclusive: 10.3% |  |
| O=C(CNCc1ccccc1Cl)Nc1ccc(C(=O)N2CCCCC2)cc1 |  | inconclusive: 1.16 µM [falling, single point] |
| Cc1ccc(-c2nc(N)sc2CC(=O)OCC(=O)NCC2CCCO2)cc1 (stereo unspecified) | inconclusive: -9.46% |  |
| CCOC(=O)Cc1csc(NC(=O)CSc2nnc(C)n2C)n1 |  | inconclusive: 0.0041 µM [falling, full curve, poor fit] |
| CCC1Oc2ccccc2N(Cc2ccccc2C)C1=O (stereo unspecified) | inconclusive: 219% |  |
| COCCn1nnnc1C(c1ccccc1)N1CCN(Cc2ccc3c(c2)OCO3)CC1 (stereo unspecified) |  | inconclusive: 16.4 µM [activator, single point] |
| Cc1cc2ccccc2cc1CN1CCCCC1 |  | inconclusive: 20.6 µM [activator, single point] |
| Cc1ccc(NC(=O)COC(=O)C2C3CC4OC(=O)C2C4C3)cc1 (stereo unspecified) | inconclusive: 21.5% |  |
| Cc1cc(C(=O)NCCc2ccc(Cl)cc2)c2ccccc2n1 | inconclusive: 102% |  |
| CCCCNc1nc(N(C)c2ccccc2)nc(-n2ccnc2)n1 |  | inconclusive: 16.4 µM [falling, partial curve] |
| OC(CN1CCN(c2cccc(C(F)(F)F)c2)CC1)c1c[nH]c2ccccc12 (stereo unspecified) | inconclusive: -4.24% |  |
| O=C(COC(=O)C12CC3CC(CC(O)(C3)C1)C2)Nc1ccc(Br)cc1F | inconclusive: -9.21% |  |
| CCC(C)c1c(O)nc(SCC(=O)N2CCCCC2)[nH]c1=O (stereo unspecified) | inconclusive: 12.2% |  |
| CCOC(=O)C1CCN(CC(=O)Nc2c(C(=O)OC)[nH]c3ccc(Cl)cc23)CC1 | inconclusive: -45.3% |  |
| Cc1ccc(S(=O)(=O)N(C)CC(=O)Nc2cccnc2)cc1 |  | inconclusive: 20.6 µM [activator, partial curve, poor fit] |
| O=C(N/N=C/c1ccc(Cl)cc1Cl)c1ccc(-n2cnnn2)cc1 |  | inconclusive: 0.0052 µM [activator, full curve, poor fit] |
| O=C(CN1CCCC1)N1CCCC(c2ccc(F)cc2)c2ccc(F)cc21 (stereo unspecified) | inconclusive: -0.153% |  |
| O=c1c2[nH]c3ccc(Cl)cc3c2ncn1CCN1CCCCC1 | inconclusive: -30.6% |  |
| O=c1[nH]c(SCCN2CCOCC2)nc(O)c1-c1ccccc1 | inconclusive: -17.7% |  |
| COc1ccc(-n2c(Cc3cc(=O)[nH]c(=O)[nH]3)nnc2SCc2ccccc2)cc1 | inconclusive: -34.1% |  |
| NS(=O)(=O)c1ccc(NC(=O)/C=C/c2cn(-c3ccccc3)nc2-c2cccc(Cl)c2)cc1 | inconclusive: -54.7% |  |
| O=C(OCc1ccc2c(c1)OCO2)c1ccc(S(=O)(=O)N2CCCC2)cc1 | inconclusive: 94.4% |  |
| Fc1cc(F)cc(-c2c(-c3ccccc3)ncc3ccc(F)cc23)c1 | inconclusive: 9.83% |  |
| COCC(C)N1CCC(Oc2cccc(C(=O)NCCc3ccccc3)c2)CC1 (stereo unspecified) |  | inconclusive: 0.58 µM [falling, single point] |
| Cn1c(Cc2ccc3c(c2)OCO3)nnc1SCC(=O)NC(C)(C)C | inconclusive: 18.1% |  |

| SMILES | lipid storage change, negative = inhibition | Potency |
| --- | --- | --- |
| O=C(CCC1CCCC1)NNC(=O)c1cc2ccccc2cc1O | inconclusive: 256% |  |
| Cc1onc(-c2ccccc2)c1NC(=O)N(CCC#N)Cc1cccs1 | inconclusive: -22.4% |  |
| Cc1ccc(S(=O)(=O)/N=C(/Nc2nc(C)cc(C)n2)N2CCOCC2)cc1 | inconclusive: 51.1% |  |
| COC(=O)Cn1cc(C(=O)OC)cc(Br)c1=O | inconclusive: -38.8% |  |
| CC(C)Cn1c(=O)c2ccccc2n2c(CCC(=O)O)nnc12 | inconclusive: 37% |  |
| CC(NC(=O)CCc1nnc(CCCc2ccccc2)o1)c1ccccc1 (stereo unspecified) |  | inconclusive: 18.4 µM [falling, partial curve, poor fit] |
| S=C(NCc1ccc(Cl)cc1)NC1CCN(Cc2ccccc2)CC1 |  | inconclusive: 35.5 µM [cytotoxic, single point] |
| O=C(Cn1[nH]c(=O)c2ccccc2c1=O)Nc1cccc(-c2nnc3n2CCCCC3)c1 | inconclusive: 13.2% |  |
| CCOC(=O)N1CCN(Cc2nc3ccc([N+](=O)[O-])cc3c(=O)n2-c2cccc(OC)c2)CC1 | inconclusive: 59.7% |  |
| CCN(C(=O)CCN1C(=O)c2ccccc2S1(=O)=O)c1ccccc1 | inconclusive |  |
| Cc1[nH]c(C)c(S(=O)(=O)N2CCN(c3cccc(Cl)c3)CC2)c1C(=O)N1CCCC1 | inconclusive: 4.81% |  |
| CC(C)(C)CN1CCC(n2nccc2NC(=O)c2ccccc2Cl)CC1 | inconclusive: -13.3% |  |
| COc1ccc2nc(SCCN(C)C)[nH]c2c1 | inconclusive: -15% |  |
| CC(=O)Nc1cccc([N+](=O)[O-])c1 |  | inconclusive: 6.51 µM [cytotoxic, single point] |
| Nc1c(Cl)cc(-c2cn(CCC(=O)O)c(-c3ccc(Cl)nc3)n2)cc1Cl | inconclusive: 18.6% |  |
| O=C(Nc1nccs1)c1ccc(-c2ccccc2[N+](=O)[O-])o1 |  | inconclusive: 18.4 µM [falling, single point] |
| CCSc1nnc(NC(=O)CN2C(=O)NC3(CCCC3)C2=O)s1 | inconclusive: -1.63% |  |
| CSc1nc2nc3c(c(=O)n2[nH]1)CCC3 | inconclusive: -4.99% |  |
| CCCc1cc(=O)n2[nH]c(NCc3ccc(Cl)cc3Cl)nc2n1 | inconclusive: 14.2% |  |
| CCOc1ccccc1NC(=O)NCc1ccccc1 |  | inconclusive: 0.731 µM [cytotoxic, single point] |
| COC(=O)c1ccc2c(c1)sc(=NC(=O)CCS(=O)(=O)c1ccccc1)n2C |  | inconclusive: 1.16 µM [activator, full curve] |
| CCn1c(C)c(C(C)=O)c(N2CCN(c3ccccn3)CC2)nc1=S | inconclusive: 57.6% |  |
| CCOc1ccc(N(C(=O)c2cc3ccccc3oc2=O)C2C=CS(=O)(=O)C2)cc1 (stereo unspecified) |  | inconclusive: 0.0058 µM [falling, full curve, poor fit] |
| Cn1c(CC(=O)Nc2cccc(Cl)c2Cl)nnc1SCC(=O)NC1=NCCS1 | inactive |  |
